# Reference: PubChem BioAssay AID488922 (Johns Hopkins Ion Channel Center, 2010)
# Some of the results follow.
# Test: KCNK9 potassium channel inhibitors, primary screen, HEK293 cells, thallium flux (AID 488922);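 further: negative B-score means less thallium flux so channel inhibition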
# Conditions: HEK293 KCNK9, FluxOR thallium flux fluorescence; initial fluorescence intensity artifact flag; at 10 µM
row,Structure (SMILES),B-score
1,O=P(Nc1nccs1)(c1ccccc1)c1nc2ccccc2s1 (stereo unspecified),0.609
